Data: paper PMC12768439
No constants are given. Whether binding was seen depends on the method and setting. For some assays here: Binding seen in cells or lysates may run through a third protein. Some results given as binding are weak or reduced against the parent protein; the word gives no strength.

Protein sequences, listed by entry. Tags and fused reporters are not part of them.
UniProt Q8K2Q9: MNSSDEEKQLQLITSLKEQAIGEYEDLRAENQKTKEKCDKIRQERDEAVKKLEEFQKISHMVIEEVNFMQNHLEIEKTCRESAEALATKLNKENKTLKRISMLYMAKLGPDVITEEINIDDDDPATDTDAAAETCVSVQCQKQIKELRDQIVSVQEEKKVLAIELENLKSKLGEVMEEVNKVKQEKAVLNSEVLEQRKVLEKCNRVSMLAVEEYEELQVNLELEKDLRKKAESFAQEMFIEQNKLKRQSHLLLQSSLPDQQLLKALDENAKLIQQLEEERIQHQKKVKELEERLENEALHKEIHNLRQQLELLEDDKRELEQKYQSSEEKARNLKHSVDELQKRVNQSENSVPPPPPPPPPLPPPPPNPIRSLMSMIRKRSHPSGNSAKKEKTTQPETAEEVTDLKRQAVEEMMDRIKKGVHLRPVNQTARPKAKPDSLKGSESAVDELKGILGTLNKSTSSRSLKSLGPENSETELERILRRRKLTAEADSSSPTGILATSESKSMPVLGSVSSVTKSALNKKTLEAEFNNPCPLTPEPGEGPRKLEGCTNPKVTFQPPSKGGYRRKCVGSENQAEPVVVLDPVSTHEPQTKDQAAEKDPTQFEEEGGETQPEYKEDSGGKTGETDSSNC

What was measured:
[1] = molecular target: FLAG-tagged Shootin1 (FLAG-SHTN1, long isoform SHTN1L) (UniProt Q8K2Q9); experiment: native gel or EMSA; nondenaturing native PAGE, 8% gel, running buffer 25 mM Tris, 192 mM glycine pH 7.5, no SDS or reducing agents, samples not heated, 200 V for 4 h on ice, Coomassie staining; both purified
[2] = molecular target: EGFP-fused full-length Shootin1 (EGFP-SHTN1) (UniProt Q8K2Q9); experiment: co-IP; Neuro-2a cells coexpressing EGFP- and FLAG-tagged Shootin1 variants; lysis in 50 mM Tris-HCl pH 7.4, 150 mM NaCl, 0.5% Triton X-100; GFP-Trap magnetic beads 1 h at 4 °C; washes with 300 mM NaCl; anti-FLAG immunoblot

- binding [1]: binds
- binding [2]: binds
Substance: FLAG-tagged Shootin1 (FLAG-SHTN1, long isoform SHTN1L) (from UniProt Q8K2Q9 1-631)
